Values of other authors as cited in US20090214544A1, “Method of treating cd30 positive lymphomas” (MEDAREX, priority 2005, published 2009).
At least one structure is not confirmed: it was looked up by name or label, or the drawing left a doubt.

Details: guidance for hydrocortisone equivalents; actual potency may vary slightly; cited from earlier work

| Compound | Relative potency in mg to hydrocortisone |
| --- | --- |
| C[C@@H]1C[C@H]2[C@@H]3CCC4=CC(=O)C=C[C@]4(C)[C@@]3(F)[C@@H](O)C[C@]2(C)[C@@]1(O)C(=O)CO [Dexamethasone] | 26.67 |
| C[C@H]1C[C@H]2[C@@H]3CCC4=CC(=O)C=C[C@]4(C)[C@@]3(F)[C@@H](O)C[C@]2(C)[C@@]1(O)C(=O)CO [Betamethasone] | 33.33 |
| C[C@H]1C[C@@H]2[C@H]([C@@H](O)C[C@@]3(C)[C@H]2CC[C@]3(O)C(=O)CO)[C@@]2(C)C=CC(=O)C=C12 [Methylprednisolone] | 5 |
